According to patent US7550471B2, “5-alkyl-7-aminotriazolopyrimidines, methods and intermediary product necessary for the production thereof, agents containing said compounds and the use thereof for fighting against harmful mushrooms” (BASF Aktiengesellschaft, priority 2002, dated 2009):
Some of these results come from one statement about several compounds together.

Tests used:
Botrytis cinerea = assay: Activity against gray mold on bell pepper leaves caused by Botrytis cinerea, protective application; format: in vivo; details: 250 ppm active compound, bell pepper seedlings, assessed after 5 days, untreated plants 90% infected
Sphaerotheca fuliginea = assay: Activity against mildew on cucumber leaves caused by Sphaerotheca fuliginea, protective application; format: in vivo; details: 250 ppm active compound, cucumber seedlings, assessed after 7 days, untreated plants 90% infected

## Cc1nc2ncnn2c(N2CCC(C)CC2)c1C1CCCC1 [Compound I-1, 5-methyl-6-cyclopentyl-7-(4-methyl-piperidin-1-yl)-[1,2,4]triazolo[1,5-a]pyrimidine]
Botrytis cinerea
  infection (fungal infection on the leaves, determined visually in %): at most 20%
Sphaerotheca fuliginea
  infection (mildew development, % infection of the cotyledone area): not more than 3%
